[ ]: non-standard residue; d: D form. Cha = N[C@@H](CC1CCCCC1)C(=O)O
Test: general procedure: Fmoc solid-phase peptide synthesis; MBHA rink amide resin; TBTU/HOBt/DIPEA
Conditions: whole synthesis, 220 nm

Substance | final HPLC purity [%]
Ac-IV[Cha]K-NH2 | 97.50
Ac-Ile-Val-Phe-Lys-NH2 (IVFK; N-acetyl, C-amide) | 96.64

From patent US20230382948A1 (KING ABDULLAH UNIVERSITY OF SCIENCE AND TECHNOLOGY, priority 2020, published 2023)
